About 170 (0.05%) of roughly 340,000 compounds were called active. The inconclusive results got no clear call from the source; some entries with a clear call stand among them for comparison. Calls follow the shape of the dose curve; as a rule, active = well fitted inhibition curve with a large enough effect in the signal ratio, with a control signal flat (not every such curve was filed as active); inconclusive = small, poorly fitted or top-dose-only effect, or effect the other way, or a change in a side signal; inactive = flat fitted curve, though single readings scatter; the % refers to the signal ratio. Potencies beside an inconclusive call are fits to weak or partial responses and may not hold up.
Experiment: qHTS Assay to Find Inhibitors of Chronic Active B-Cell Receptor Signaling;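 as to activity change, negative = inhibition: plate controls were basal doxycycline-induced cells for no effect and cells given 10 µM MG132 for full effect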
Conditions: ABC-DLBCL IkBa-CBG/CBR reporter, luminescence ratio (green luciferase fused to IkBa over red control in TMD8 lymphoma cells), 4 h; activity change, negative = inhibition: at 46.1 µM (top of the series) unless noted
Method in brief: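 Concentration-response series (up to 46 uM) were applied to TMD8 dual-reporter cells for 4 h at 37C with doxycycline. Green/red ratio, after filter-overlap correction, defined %Activity; red signal alone was normalised to basal cells and zero luminescence.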
Potency is read from the fitted curve at half-maximal effect.

Row | SMILES | activity change, negative = inhibition | Potency
1 | COc1ccc(/C=c2\s/c(=C\C(=O)C(C)(C)C)[nH]c2=O)cc1O | inconclusive: 7.24% | –
2 | O=C(/C=C/c1ccc(S(=O)(=O)N2CCOCC2)cc1)NC(=S)Nc1ccc(N2CCOCC2)cc1 | inactive: -3.67% | –
3 | c1cncc(-c2noc(-c3cccc4ccccc34)n2)c1 | inconclusive: 4.33% | –
4 | O=C(NCCSCc1ccccc1)c1cc(S(=O)(=O)N2CCOCC2)ccc1F | inactive: -1.49% | –
5 | COc1cc(C)c(C(C)C)cc1S(=O)(=O)n1cnc(C)c1 | – | inconclusive: 7.31 µM [falling, partial curve]
6 | CN(C)S(=O)(=O)c1ccc(Oc2ccccc2)cc1 | inconclusive: 16.2% | –
7 | N#Cc1nc(-c2ccccc2F)oc1NC1CCCCC1 | inactive: -15% | –
8 | O=C(NC(=S)N1CCCCCC1)c1ccccc1Cl | – | inconclusive: 17.8 µM [falling, single point]
9 | CS(=O)(=O)N(Cc1ccccc1)c1ccccc1C(=O)N1CCN(c2ccccc2)CC1 | inconclusive: 0.527% | –
10 | CCC(=O)NC(Nc1nc(C)cs1)(C(=O)OC)C(F)(F)F (centres undefined) | inconclusive: 2.44% | –
11 | CSCCC(C(=O)N1CC2(C)CC1CC(C)(C)C2)N1C(=O)c2ccccc2C1=O (centres undefined) | – | inconclusive: 16.4 µM [falling, partial curve, poor fit]
12 | Cc1ccc(NC(=O)CSc2nc3ccccc3c(=O)n2CCCC(=O)NCCCN2CCOCC2)cc1 | inconclusive: -9.35% | –
13 | O=C(CNCCc1ccc(F)cc1)Nc1cc(F)ccc1F | inactive: 1.11% | –
14 | COc1ccc(C2CC(C(F)(F)F)n3ncc(C(=O)Nc4cccc(O)c4)c3N2)cc1OC (centres undefined) | inconclusive: -9.81% | –
15 | Cc1onc(-c2c(Cl)cccc2Cl)c1C(=O)N1CCSCC1 | inconclusive: -168% | –
16 | Cc1ccc(-c2nc(SCC(N)=O)c(C#N)c3c2CCCC3)cc1 | inconclusive: -2.57% | –
17 | O=C(/C=C/c1cc2ccccc2o1)c1ccccc1O | – | inconclusive: 35.5 µM [falling, single point]
18 | CC(C)(C)c1cc2nc(N)nc(N)n2n1 | inconclusive: -14.7% | –
19 | O=C1N[C@@H](Cc2c[nH]c3ccccc23)COC(=O)[C@H](Cc2ccc(F)cc2)C/C=C\C[C@H]1CC(=O)N(CCO)Cc1ccccc1 | inconclusive: -6% | –
20 | COc1ccc(CCNC(=O)c2cnc3scc(C)n3c2=O)cc1OC | – | inconclusive: 0.517 µM [falling, full curve, poor fit]

Eleven entries already listed, sorted by length of the SMILES, falling.
Row | SMILES | activity change, negative = inhibition | Potency
9 | CS(=O)(=O)N(Cc1ccccc1)c1ccccc1C(=O)N1CCN(c2ccccc2)CC1 | inconclusive: 0.527% | –
11 | CSCCC(C(=O)N1CC2(C)CC1CC(C)(C)C2)N1C(=O)c2ccccc2C1=O (centres undefined) | – | inconclusive: 16.4 µM [falling, partial curve, poor fit]
16 | Cc1ccc(-c2nc(SCC(N)=O)c(C#N)c3c2CCCC3)cc1 | inconclusive: -2.57% | –
20 | COc1ccc(CCNC(=O)c2cnc3scc(C)n3c2=O)cc1OC | – | inconclusive: 0.517 µM [falling, full curve, poor fit]
15 | Cc1onc(-c2c(Cl)cccc2Cl)c1C(=O)N1CCSCC1 | inconclusive: -168% | –
3 | c1cncc(-c2noc(-c3cccc4ccccc34)n2)c1 | inconclusive: 4.33% | –
6 | CN(C)S(=O)(=O)c1ccc(Oc2ccccc2)cc1 | inconclusive: 16.2% | –
17 | O=C(/C=C/c1cc2ccccc2o1)c1ccccc1O | – | inconclusive: 35.5 µM [falling, single point]
7 | N#Cc1nc(-c2ccccc2F)oc1NC1CCCCC1 | inactive: -15% | –
8 | O=C(NC(=S)N1CCCCCC1)c1ccccc1Cl | – | inconclusive: 17.8 µM [falling, single point]
18 | CC(C)(C)c1cc2nc(N)nc(N)n2n1 | inconclusive: -14.7% | –

Remaining list, next part:

Row | SMILES | activity change, negative = inhibition | Potency
21 | COC(=O)c1ccsc1NC(=O)CCS(=O)(=O)c1ccccc1 | – | inconclusive: 11.2 µM [falling, partial curve]
22 | OC[C@@H]1[C@@H](c2ccc(F)cc2)C(c2cccc(Cl)c2)=NN1c1ccccc1 | inactive: 5.14% | –
23 | Cc1cc(C)c2nc3sc(C(=O)N4CCOCC4)c(N)c3cc2c1 | – | inconclusive: 14.1 µM [falling, partial curve, poor fit]
24 | Cc1ccc(N=C/C(C(=O)C(F)(F)F)=C(\O)c2cccs2)cc1 | – | inconclusive: 35.5 µM [falling, single point]
25 | COc1ccccc1NC(=O)Nc1nnc(CC(=O)Nc2ccccc2C)s1 | – | inconclusive: 25.1 µM [falling, partial curve]
26 | O=C(COC(=O)[C@@H]1CC(O)CN1S(=O)(=O)c1ccc2c(c1)OCCO2)Nc1cc(F)ccc1F (some centres undefined) | inconclusive: -0.443% | –
27 | O=C(CCc1ccc(S(=O)(=O)N2CCOCC2)cc1)Nc1ccc2ccccc2c1 | inconclusive: -6.06% | –
28 | CC1CCCN(S(=O)(=O)c2coc(C(N)=O)c2)C1 (centres undefined) | inconclusive: -0.525% | –
29 | O=C(Cc1ccc(Br)cc1)N1CCCCCC1 | inactive: 10.8% | –
30 | O=C(/C=C/c1cn(-c2ccccc2)nc1-c1cccnc1)N1CCCCC1 | inconclusive: -3.87% | –
31 | O=C(CSc1nnc(-c2ccncc2)o1)NCc1ccccc1Cl | inconclusive: -2.05% | –
32 | CCC1CCC(NC2CCCCNC2=O)CC1 (centres undefined) | inconclusive: 0.515% | –
33 | CCCCNC(=O)Nc1ccccc1C(=O)NCCC | inconclusive: 7.12% | –
34 | Cc1ccccc1NC(=O)Cn1nc(-c2ccccc2)nc(Cc2ccccc2)c1=O | inactive: -2.11% | –
35 | Cc1cccc(N=N/C(=C\O)C(=O)c2ccc(Br)cc2)c1 | inconclusive: -13.2% | –
36 | CCN(CC)CCCNC(=O)c1cc2c(=O)n(CC)c3ccccc3c2s1 | – | inconclusive: 15.8 µM [falling, single point]
37 | CCOc1cccc(OCCCCN2CCOCC2)c1 | inconclusive: 3.89% | –
38 | COc1cc(C(=O)NNC(=S)NC(=O)c2ccc(Cl)cc2)cc(OC)c1OC | – | inconclusive: 25.9 µM [falling, partial curve, poor fit]
39 | O=C(CCN1C(=O)/C(=C/c2ccccc2F)SC1=S)N[C@@H](CO)Cc1ccccc1 | – | inconclusive: 11.2 µM [falling, single point]

— PubChem BioAssay AID493014 (National Center for Advancing Translational Sciences (NCATS), 2011)
